This is an account of results in paper PMC6131142.

Protein sequences, listed by entry. Tags and fused reporters are not part of them. Lines headed by an entry give the natural chain unless they say otherwise; changes in a name come on top.
UniProt O23661: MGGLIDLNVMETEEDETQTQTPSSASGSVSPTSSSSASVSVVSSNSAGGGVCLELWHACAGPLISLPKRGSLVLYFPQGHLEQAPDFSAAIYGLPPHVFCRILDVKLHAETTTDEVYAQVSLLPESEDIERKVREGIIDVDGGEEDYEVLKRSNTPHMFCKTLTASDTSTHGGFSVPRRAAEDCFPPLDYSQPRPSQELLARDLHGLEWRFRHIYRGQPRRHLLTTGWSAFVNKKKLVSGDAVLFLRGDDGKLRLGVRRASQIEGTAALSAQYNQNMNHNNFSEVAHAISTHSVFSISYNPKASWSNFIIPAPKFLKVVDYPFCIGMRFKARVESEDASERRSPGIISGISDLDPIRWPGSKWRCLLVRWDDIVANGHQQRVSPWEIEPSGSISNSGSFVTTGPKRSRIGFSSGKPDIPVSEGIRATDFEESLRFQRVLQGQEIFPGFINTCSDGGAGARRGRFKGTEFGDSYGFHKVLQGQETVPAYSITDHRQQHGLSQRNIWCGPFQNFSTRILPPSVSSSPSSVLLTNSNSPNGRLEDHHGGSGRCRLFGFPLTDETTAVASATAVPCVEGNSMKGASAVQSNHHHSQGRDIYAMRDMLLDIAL

These are yes or no findings as the source states them, for the method shown. A result given as binding can be weak or reduced; the word gives no strength.

The target of this assay is T1, … (IND) transcription factor of Arabidopsis thaliana (Arabidopsis thaliana) (UniProt O81313).
T1 sequence: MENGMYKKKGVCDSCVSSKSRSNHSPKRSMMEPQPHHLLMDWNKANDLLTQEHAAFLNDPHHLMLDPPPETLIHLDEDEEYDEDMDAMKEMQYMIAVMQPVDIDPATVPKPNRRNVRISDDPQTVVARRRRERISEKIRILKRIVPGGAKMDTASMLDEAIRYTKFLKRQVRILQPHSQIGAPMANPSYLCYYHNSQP
The experiment in a line: two-hybrid; GAL4 system (pGADT7 and pGBKT7), yeast AH109, co-transformation, 28 °C, growth on selective YSD medium -W-L-H-A with IAA in the medium (different concentrations; 100 μM IAA in the error-prone screen).
As to “ES_EP1 (ES domain variant from error-prone mutagenesis) (from UniProt O23661) (domain or fragment)”, the binding result was “binds”.

Take “ES_EP2 (ES domain variant from error-prone mutagenesis) (from UniProt O23661) (domain or fragment)”: the binding result was “binds”.

As for “ES_EP3 (ES domain variant from error-prone mutagenesis) (from UniProt O23661) (domain or fragment)”, the binding result is “binds”.

For the substance “ES_SP (ES domain with serine to threonine mutations in the Ser patch) (from UniProt O23661) (domain or fragment)”, the binding entry is given as “binds”.
